Publication PMC4559358

Chains of the proteins cited; added tags and fusions are not shown.
UniProt Q9Z0W5: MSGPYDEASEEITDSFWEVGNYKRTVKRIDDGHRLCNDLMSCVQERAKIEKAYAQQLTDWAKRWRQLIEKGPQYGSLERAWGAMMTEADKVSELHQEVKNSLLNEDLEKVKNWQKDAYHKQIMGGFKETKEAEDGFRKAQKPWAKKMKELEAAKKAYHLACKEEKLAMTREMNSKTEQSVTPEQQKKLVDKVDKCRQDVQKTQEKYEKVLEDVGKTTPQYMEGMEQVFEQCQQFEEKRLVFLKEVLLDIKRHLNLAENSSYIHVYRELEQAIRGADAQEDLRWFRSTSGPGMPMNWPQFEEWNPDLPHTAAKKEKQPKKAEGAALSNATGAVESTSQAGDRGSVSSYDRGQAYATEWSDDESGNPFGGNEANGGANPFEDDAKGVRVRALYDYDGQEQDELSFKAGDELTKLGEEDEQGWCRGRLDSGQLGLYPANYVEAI

Molecular target: GFP-Cobl^1-408∆CaM (mouse) (UniProt Q5NBX1)
Test: co-IP; HEK293 lysates, anti-GFP immunoprecipitation, protein A-agarose, lysis buffer without DTT, 75 mM NaCl (confirmed at 100 mM NaCl); Ca^2+-free, 2 μM Ca^2+, or 2 μM Ca^2+ then 1 mM EGTA; quantitative immunoblot normalized to immunoprecipitated Cobl

Flag-syndapin I (from UniProt Q9Z0W5 1-441)
binding: binds

Results are given in words; binding and its absence hold for the method and conditions named. Binding seen in cells or lysates may run through a third protein. Binding calls can cover weak binding; strength is not graded here.
